# In the supplement of paper PMC6411743:
# By UniProt entry, the sequences of proteins in these tests, tags left out. Where a name states a change or a piece, a line headed by the entry shows the natural chain unless it says otherwise.
# UniProt O75151: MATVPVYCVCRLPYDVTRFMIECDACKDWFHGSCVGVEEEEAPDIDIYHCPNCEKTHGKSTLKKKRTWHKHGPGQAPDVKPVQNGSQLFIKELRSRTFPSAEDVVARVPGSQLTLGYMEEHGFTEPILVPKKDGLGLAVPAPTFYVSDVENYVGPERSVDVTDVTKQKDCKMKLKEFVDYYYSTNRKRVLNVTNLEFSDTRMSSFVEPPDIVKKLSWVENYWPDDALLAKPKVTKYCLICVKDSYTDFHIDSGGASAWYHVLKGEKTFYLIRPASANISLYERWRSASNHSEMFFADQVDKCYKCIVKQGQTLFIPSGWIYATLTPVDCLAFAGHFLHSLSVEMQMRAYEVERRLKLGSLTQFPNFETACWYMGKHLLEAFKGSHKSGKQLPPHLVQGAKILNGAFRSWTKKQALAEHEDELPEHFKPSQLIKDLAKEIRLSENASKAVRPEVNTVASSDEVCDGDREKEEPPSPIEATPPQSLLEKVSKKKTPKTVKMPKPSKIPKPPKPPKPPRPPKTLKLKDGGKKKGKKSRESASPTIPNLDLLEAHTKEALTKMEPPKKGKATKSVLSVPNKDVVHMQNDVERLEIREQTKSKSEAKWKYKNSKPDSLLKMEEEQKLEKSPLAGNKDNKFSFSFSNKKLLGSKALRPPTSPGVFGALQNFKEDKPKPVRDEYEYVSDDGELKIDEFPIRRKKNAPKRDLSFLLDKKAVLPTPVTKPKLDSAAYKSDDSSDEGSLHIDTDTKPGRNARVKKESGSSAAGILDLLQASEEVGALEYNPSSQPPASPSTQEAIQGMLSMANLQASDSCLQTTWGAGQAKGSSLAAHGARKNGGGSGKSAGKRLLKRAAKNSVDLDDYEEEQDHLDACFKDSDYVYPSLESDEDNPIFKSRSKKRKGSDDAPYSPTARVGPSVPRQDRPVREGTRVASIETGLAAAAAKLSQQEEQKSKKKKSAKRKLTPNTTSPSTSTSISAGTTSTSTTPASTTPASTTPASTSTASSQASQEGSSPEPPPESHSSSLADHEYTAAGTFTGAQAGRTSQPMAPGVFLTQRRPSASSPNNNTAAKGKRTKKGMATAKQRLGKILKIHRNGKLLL
# UniProt O75600: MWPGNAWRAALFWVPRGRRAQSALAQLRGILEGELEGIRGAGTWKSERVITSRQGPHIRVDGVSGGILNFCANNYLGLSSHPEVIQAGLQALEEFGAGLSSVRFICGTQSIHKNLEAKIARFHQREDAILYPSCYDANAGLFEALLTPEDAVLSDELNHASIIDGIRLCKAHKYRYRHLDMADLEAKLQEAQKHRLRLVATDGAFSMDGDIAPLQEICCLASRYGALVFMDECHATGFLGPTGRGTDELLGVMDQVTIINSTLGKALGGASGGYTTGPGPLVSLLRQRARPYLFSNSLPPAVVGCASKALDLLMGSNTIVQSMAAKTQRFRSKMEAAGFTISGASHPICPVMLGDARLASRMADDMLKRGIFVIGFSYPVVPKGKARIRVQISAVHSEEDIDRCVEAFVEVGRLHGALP
# UniProt O75063: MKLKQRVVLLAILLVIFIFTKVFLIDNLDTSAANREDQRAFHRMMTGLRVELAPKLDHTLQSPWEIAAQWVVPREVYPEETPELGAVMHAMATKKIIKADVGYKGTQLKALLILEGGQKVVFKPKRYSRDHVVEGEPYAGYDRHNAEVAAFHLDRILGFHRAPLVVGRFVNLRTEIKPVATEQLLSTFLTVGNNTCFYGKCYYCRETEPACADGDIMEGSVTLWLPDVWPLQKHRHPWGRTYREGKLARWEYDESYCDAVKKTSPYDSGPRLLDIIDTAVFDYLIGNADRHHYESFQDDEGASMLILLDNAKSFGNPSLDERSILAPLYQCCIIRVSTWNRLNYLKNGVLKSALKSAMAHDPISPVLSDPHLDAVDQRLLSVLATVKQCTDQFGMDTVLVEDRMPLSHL
# UniProt O75529: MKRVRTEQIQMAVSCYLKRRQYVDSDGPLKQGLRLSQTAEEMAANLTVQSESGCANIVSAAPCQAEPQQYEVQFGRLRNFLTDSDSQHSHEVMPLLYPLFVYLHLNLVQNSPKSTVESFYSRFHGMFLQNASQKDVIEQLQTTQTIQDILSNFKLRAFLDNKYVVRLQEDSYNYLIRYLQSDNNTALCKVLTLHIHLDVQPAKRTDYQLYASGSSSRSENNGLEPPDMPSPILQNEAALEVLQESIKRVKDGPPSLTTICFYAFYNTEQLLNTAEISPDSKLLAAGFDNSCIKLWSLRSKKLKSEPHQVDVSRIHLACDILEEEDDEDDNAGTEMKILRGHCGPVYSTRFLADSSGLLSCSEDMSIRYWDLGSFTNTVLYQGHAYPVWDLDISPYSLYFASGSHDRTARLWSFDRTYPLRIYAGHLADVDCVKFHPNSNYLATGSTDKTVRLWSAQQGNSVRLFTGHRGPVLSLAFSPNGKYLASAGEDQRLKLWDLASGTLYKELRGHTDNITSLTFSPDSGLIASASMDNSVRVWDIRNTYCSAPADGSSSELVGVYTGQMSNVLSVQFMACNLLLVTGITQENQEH
# ± gives the standard deviation of the averaged measurements. Some of the results follow.
# Compound: Nc1nc2c(ncn2[C@@H]2O[C@H](COP(=O)(O)OP(=O)(O)OP(=O)(O)O)[C@@H](O)[C@H]2O)c(=O)[nH]1 [guanosine triphosphate]
# Assay: NP40-soluble protein abundance relative to vehicle (solubility fold change) (ratio); higher = more soluble protein in presence of GTP
# Procedure: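 Solubility proteome profiling in Jurkat crude lysate. Lysate was treated with Mg-GTP (0.1-10 mM) for 10 min at room temperature and 3 min at 37 °C, then solubilised with 0.8% NP40 and benzonase, followed by ultracentrifugation. Proteins were quantified by TMT10 LC-MS/MS; the value is the NP40-soluble abundance relative to the NP40-processed vehicle, from 3 independent experiments.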
Target,NP40-soluble protein abundance (concentration: 0.1mM),NP40-soluble protein abundance (concentration: 0.5mM),NP40-soluble protein abundance (concentration: 1mM),NP40-soluble protein abundance (concentration: 2mM),NP40-soluble protein abundance (concentration: 4mM),NP40-soluble protein abundance (concentration: 6mM),NP40-soluble protein abundance (concentration: 8mM),NP40-soluble protein abundance (concentration: 10mM)
PHF2 (UniProt O75151),0.968 ± 0.1,1.03 ± 0.076,1.06 ± 0.095,1.08 ± 0.17,1.07 ± 0.11,1.16 ± 0.16,1.18 ± 0.1,1.32 ± 0.17
UniProt O75600 and related entries,1.03 ± 0.036,1.02 ± 0.024,0.996 ± 0.071,0.975 ± 0.07,0.978 ± 0.041,0.948 ± 0.016,0.95 ± 0.018,0.915 ± 0.021
UniProt O95684-2|O95684,0.849 ± 0.048,0.862 ± 0.053,0.935 ± 0.069,0.903 ± 0.081,0.853 ± 0.086,0.859 ± 0.1,0.849 ± 0.058,0.914 ± 0.09
FAM20B (UniProt O75063),1.16 ± 0.087,1.15 ± 0.052,1.01 ± 0.011,1.07 ± 0.064,0.981 ± 0.044,1.02 ± 0.014,0.978 ± 0.075,0.92 ± 0.0029
TAF5L (UniProt O75529),1.22 ± 0.087,1.26 ± 0.17,1.19 ± 0.2,1.21 ± 0.12,1.28 ± 0.093,1.22 ± 0.16,1.22 ± 0.06,1.25 ± 0.11
